According to PubChem BioAssay AID493014 (National Center for Advancing Translational Sciences (NCATS), 2011):
Screen size: about 340,000 compounds; about 170 (0.05%) were called active. The shares of active, inactive and inconclusive entries below differ from those in the screen. The call rests on the fitted dose curve; in most records, active means well fitted inhibition curve with a large enough effect in the signal ratio, with a control signal flat (not every such curve was filed as active); inconclusive means small, poorly fitted or top-dose-only effect, or effect the other way, or a change in a side signal; inactive means flat fitted curve, though single readings scatter; the % refers to the signal ratio. Potencies of inconclusive entries are doubtful fits and often do not repeat.

experiment: qHTS Assay to Find Inhibitors of Chronic Active B-Cell Receptor Signaling; details: ABC-DLBCL IkBa-CBG/CBR reporter, luminescence ratio (green luciferase fused to IkBa over red control in TMD8 lymphoma cells), 4 h; activity change, negative = inhibition: at 46.1 µM (top of the series) unless noted;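 on activity change, negative = inhibition: plate controls were basal doxycycline-induced cells for no effect and cells given 10 µM MG132 for full effect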
Outline: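 Concentration-response series (up to 46 uM) were applied to TMD8 dual-reporter cells for 4 h at 37C with doxycycline. Green/red ratio, after filter-overlap correction, defined %Activity; red signal alone was normalised to basal cells and zero luminescence.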
Potency means the concentration at half of the fitted maximal effect.

SMILES | Potency | activity change, negative = inhibition
O=C(Nc1ccc(Cl)cc1)[C@@H]1[C@@H]2C(=O)N(c3ccc(Cl)cc3)C(=O)[C@@H]2[C@H]2C=CC=NN21 | inconclusive: 9.2 µM [falling, partial curve] | 
CC1=NN(c2ccccc2)C(=O)C1C(=O)c1cc([N+](=O)[O-])cc([N+](=O)[O-])c1 (centres undefined) | inconclusive: 8.91 µM [activator, partial curve, poor fit] | 
CCOC(=O)c1ccc(Nc2c(-c3ccc(OC)cc3)nc3nc[nH]n23)cc1 | inconclusive: 11.2 µM [falling, partial curve] | 
CCN1CCN(C(=S)Nc2ccc(Cl)cc2)CC1 |  | inconclusive: 3.68%
COc1ccc(/C=N/NC(=O)c2ccncc2)cc1[N+](=O)[O-] |  | inactive: -6.08%
C/C(=N\N=C1\NC(=O)CS1)c1cccs1 |  | inconclusive: 4.12%
COc1ccc(NC(=O)CCC(=O)NCCO)cc1 |  | inconclusive: 18.8%
COC(=O)c1ccccc1NC(=O)C1CC=CCC1C(=O)O (centres undefined) |  | inconclusive: -7.76%
C/C(=N\NC(=O)c1nn(C)c(C)c1Br)c1cccc(NC(=O)c2ccoc2C)c1 |  | inconclusive: -0.0131%
Cc1occc1C(=O)N/N=C/c1cccs1 | inconclusive: 15.8 µM [falling, partial curve] | 
CC(=O)c1cccc(NC(=S)NCc2ccco2)c1 |  | inconclusive: 1.37%
O=C(O)CCC(=O)Nc1cccc2cccnc12 | inconclusive: 25.1 µM [falling, partial curve] | 
O=C(NCc1ccccn1)c1ccc2c(=O)n3nc(Nc4ccccc4)sc3nc2c1 | inconclusive: 11.2 µM [falling, partial curve] | 
O=C(Cn1c(=O)oc2ccccc21)N(Cc1ccccc1)C1CCS(=O)(=O)C1 (centres undefined) |  | inactive: 6.33%
CC(C)c1ccc(NC(=O)CN2CCN(c3ccccn3)CC2)cc1 |  | inactive: -3.15%
O=C(Nc1ccc(Cl)cc1)C1CCCN(c2cnccn2)C1 (centres undefined) |  | inconclusive: 9.38%
COc1cc(Cl)c(C)cc1NC(=O)COC(=O)c1cnc(C)cn1 |  | inconclusive: 8.57%
CCOCCn1c(CN2CCN(C(=O)c3ccco3)CC2)nc2c1c(=O)n(C)c(=O)n2C |  | inactive: 7.07%
CCNc1nc(NCC)nc(OCC(=O)O)n1 |  | inconclusive: 0.745%
O=C(NCCCCc1ccccc1)C1CC(c2cccc(F)c2)=NO1 (centres undefined) |  | inconclusive: 2.9%
O=C(Nc1ccc(Cl)cc1)Nc1ccc(S(=O)(=O)Nc2ncccn2)cc1 |  | inconclusive: -14.2%
Cc1c(CN(C)C)c2c(n1C)C(=O)c1ccc(Br)cc1-2 |  | inactive: -1.17%
CC(C)(C)NC(=O)NC(=O)CN1CCN(c2ncc(C(F)(F)F)cc2Cl)CC1 | inconclusive: 23.1 µM [falling, partial curve, poor fit] | 
Cc1cc(=O)oc2cc(OC(=O)c3ccccc3)ccc12 |  | inconclusive: 0.232%
Cc1cc(=O)[nH]c(SCC(=O)c2ccccc2)c1C#N | inconclusive: 35.5 µM [rising, single point] | 
Nc1nc(Nc2ccccc2)sc1C(=O)c1ccccc1 |  | inconclusive: 25.5%
c1ccc(CN2CCC(Nc3nc(-c4cccs4)nc4ccccc34)CC2)cc1 |  | inconclusive: -0.812%

Arranged by count of non-hydrogen atoms (largest number first): part of the list above
SMILES | Potency | activity change, negative = inhibition
O=C(Nc1ccc(Cl)cc1)[C@@H]1[C@@H]2C(=O)N(c3ccc(Cl)cc3)C(=O)[C@@H]2[C@H]2C=CC=NN21 | inconclusive: 9.2 µM [falling, partial curve] | 
CCOC(=O)c1ccc(Nc2c(-c3ccc(OC)cc3)nc3nc[nH]n23)cc1 | inconclusive: 11.2 µM [falling, partial curve] | 
O=C(Nc1ccc(Cl)cc1)Nc1ccc(S(=O)(=O)Nc2ncccn2)cc1 |  | inconclusive: -14.2%
Cc1cc(=O)oc2cc(OC(=O)c3ccccc3)ccc12 |  | inconclusive: 0.232%

(more compounds)

SMILES | Potency | activity change, negative = inhibition
CCOc1ccc(N=c2oc3cc(O)ccc3cc2C(=O)NCC2CCCO2)cc1 (centres undefined) | inconclusive: 4.11 µM [falling, partial curve] | 
O=C(Nn1cnnc1)c1ccc(Br)s1 |  | inactive: 4.14%
CC1CCN(S(=O)(=O)c2ccc([N+](=O)[O-])cc2)CC1 |  | inactive: 0.748%
CC(=O)c1c(C)[nH]c(C(=O)CN2C(=O)NC(C)(c3ccc(C)cc3)C2=O)c1C (centres undefined) |  | inactive: 0.214%
CN(C)c1ccc(NC(=O)C2C3C=CC(C3)C2C(=O)O)cc1 (centres undefined) |  | inactive: -2.82%
Cc1ccccc1Oc1nc2c(C)cccn2c(=O)c1/C=C(\C#N)C(=O)Nc1c(C)n(C)n(-c2ccccc2)c1=O | inconclusive: 13 µM [falling, partial curve] | 
CCSc1nnc(C)n1-c1ccc(C(=O)O)cc1 |  | inconclusive: -7.9%
COC(=O)Cc1[nH]n(-c2nc3ccccc3s2)c(=O)c1C(C)=Nc1ccc(C)cc1 |  | inconclusive: -19.5%
COc1cc(OC)c2c(c1)OC(=O)CC2c1cc(OC)c(OC)c(OC)c1 (centres undefined) |  | inconclusive: -0.14%
Cc1ccccc1OC(=O)c1cccnc1 |  | inconclusive: 6.53%
Cc1nnc(CN(C)C(=O)c2cc(COc3ccc(C)c(C)c3)on2)o1 | inconclusive: 20 µM [falling, partial curve] | 
Cc1ccc(NC(=O)C(OC(=O)c2ccc(C=O)cc2)c2ccccc2)cc1Cl (centres undefined) | inconclusive: 1.46 µM [rising, full curve, poor fit] | 
COc1ccccc1CNC(=O)CS(=O)Cc1nc(-c2ccccc2C)oc1C (centres undefined) | inconclusive: 2.91 µM [rising, full curve, poor fit] | 
Cc1[nH]n(-c2ccccc2)c(=S)c1C=NCCCN=Cc1c(C)[nH]n(-c2ccccc2)c1=S |  | inconclusive: -10.2%
O=C(NCCc1ccco1)C(=O)NCC1OCCCN1S(=O)(=O)c1ccc(F)cc1 (centres undefined) |  | inconclusive: 10.4%
CC(=O)SC1CC(=O)N(c2c(C)cccc2C)C1=O (centres undefined) |  | inconclusive: -29.8%
O=C(N=Nc1c(O)[nH]c2ccccc12)c1cccc(S(=O)(=O)Nc2ccccc2Cl)c1 |  | inconclusive: -3.03%
CCN(CC)C(=O)c1sc(NC(=O)C(C)C)c(C#N)c1C |  | inconclusive: 0.468%
Cn1nnnc1SC1CC(=O)N(c2ccccc2)C1=O (centres undefined) |  | inconclusive: 7.13%
Cc1ccc(-c2cc(-c3ccccc3)c3c(N)c(S(C)(=O)=O)sc3n2)cc1 | inconclusive: 8.2 µM [rising, partial curve, poor fit] | 
O=C(C(c1ccccc1)c1ccccc1)N1CCCc2ccccc21 | inconclusive: 8.2 µM [rising, partial curve] | 
CS(=O)(=O)Nc1cccc2cccnc12 | inconclusive: 35.5 µM [falling, partial curve, poor fit] | 
COc1cc(OC)c(NC(=O)C2CCCO2)cc1Cl (centres undefined) |  | inconclusive: -1.71%
O=C(N[C@@H](Cc1c[nH]c2ccccc12)C(=O)NC1CC1)c1ccccc1Cl | inconclusive: 29.1 µM [falling, single point] | 
COCc1ccc(C(=O)N2CCC(CCC(=O)Nc3cccc(C)c3)CC2)s1 |  | inactive: -6.69%
COc1ccc(N(C(=O)Cn2nnc(-c3ccc(F)cc3)n2)C(C)C(=O)NC2CCCC2)cc1 (centres undefined) |  | inactive: -3.37%
Cc1nnc(NC(=O)c2ccc(Br)cc2)s1 |  | inconclusive: 6.62%

As entered above:
For activity change, negative = inhibition, `CCN(CC)C(=O)c1sc(NC(=O)C(C)C)c(C#N)c1C` reads inconclusive: 0.468%
For activity change, negative = inhibition, `COc1cc(Cl)c(C)cc1NC(=O)COC(=O)c1cnc(C)cn1` reads inconclusive: 8.57%

Further structures

SMILES | Potency | activity change, negative = inhibition
C/C(=N\NC(=O)c1cccnc1)c1ccc(OC2OCCOC2Oc2ccc(/C(C)=N/NC(=O)c3cccnc3)cc2)cc1 (centres undefined) | inconclusive: 31.6 µM [falling, single point] | 
CCOC(=O)c1sc2nccc(N(C)C)c2c1N=CNOCc1ccccc1 |  | inactive: 10.1%
COc1cc([N+](=O)[O-])ccc1NC(=O)NNC(=O)c1sccc1C | inconclusive: 10 µM [falling, partial curve] | 
COC(=O)c1sccc1NC(=O)CSCCc1ccccn1 | inconclusive: 14.1 µM [falling, partial curve, poor fit] | 
CCc1nnc(NC(=O)c2oc3ccccc3c2COC(C)C)s1 |  | inconclusive: -6.57%
CC(C)CC(C(=O)NC(C)(C)C)N(Cc1ccccc1Cl)C(=O)c1snc(C(N)=O)c1N (centres undefined) |  | inconclusive: 7.28%
O=C(CCN1C(=O)/C(=C/c2cccs2)SC1=S)NNC(=O)c1cccc(O)c1 | inconclusive: 17.8 µM [falling, partial curve, poor fit] | 
OC(COc1ccccc1)CN1CCN(CC(O)COc2ccccc2)CC1 (centres undefined) |  | inactive: 0.491%
COc1cc(F)c(C2=CC(=O)CC(C)(C)C2)cc1F |  | inconclusive: 0.164%
OCCNc1nc(Nc2cccc(O)c2)nc2ccccc12 |  | inconclusive: -2.31%
O=c1[nH]c(=O)n(Cc2ccco2)c2c1C(C(F)(F)F)(C(F)(F)F)N=C(Cc1ccccc1)N2 | inconclusive: 31.6 µM [falling, partial curve, poor fit] | 
CC1CC(C)CN(CCOc2cccc(Cl)c2Cl)C1 (centres undefined) |  | inconclusive: -1.29%
COc1ccc(CN2CCN(Cc3ccc(Br)cc3)CC2)c(OC)c1OC |  | inactive: -14.2%
CCOC(=O)C1CCN(S(=O)(=O)c2ccc(-c3cc(C(F)(F)F)n(C)n3)s2)CC1 |  | inconclusive: 5.58%
CCOc1cc(/C=N/NC(=O)c2cc3c(ccc4ccccc43)o2)ccc1O |  | inactive: -4.22%
CC(=O)n1c2c(c3ccccc31)OC(N)=C(C#N)C2c1ccc(C(C)C)cc1 (centres undefined) | inconclusive: 35.5 µM [falling, single point] | 
CC1(C)Cc2c(sc(NC(=O)c3ccco3)c2C#N)CO1 |  | inconclusive: -1.47%
Cc1ccc(C2=NC(C)(C)N=C2SCC(=O)Nc2ccc(Cl)cc2)cc1 | inconclusive: 18.4 µM [falling, partial curve] | 
O=C(NC1CCCCC1)c1cc(N2C(=O)CCC2=O)ccc1Cl |  | inconclusive: 3.15%
O=C(CNC(=O)c1ccco1)N/N=C/c1ccccc1[N+](=O)[O-] |  | inactive: 1.25%
O=C(Nc1nncs1)c1ccc2c(c1)OCO2 |  | inconclusive: -10.8%
O=C(COc1ccccc1[N+](=O)[O-])Nc1ccc(Br)cc1 |  | inconclusive: 3.02%
COc1ccc(/C=N/NC(=O)c2cccnc2)cc1CN1CCCc2ccccc21 | inconclusive: 10 µM [falling, partial curve, poor fit] | 
CC(=O)NC1=NN(C(C)=O)C(c2ccco2)S1 (centres undefined) |  | inactive: -3.64%
Cc1cccc(NC(=O)CSc2nc3ccccc3c(=O)n2CC2CCCO2)c1 (centres undefined) |  | inconclusive: 3.82%
